Measured values reported in the supplement of paper PMC11348887.
Structures can show the parent of a compound that is named as a salt. Some of the results follow. Small differences around the control level are noise.

Each molecule was assayed on hPSC-derived cortical neurons (WA09) (assay: total neurite length per nucleus (MAP2) z-score; higher = more neurite growth). Settings: 5 µM; treatment: days 7-14 after plating, readout day 21.

Compound | total neurite length per nucleus (z-score)
CC1(C)[C@H](C(=O)O)N2C(=O)C[C@H]2S1(=O)=O [Sulbactam sodium] | 0.281
Cc1cc2c(F)c(Oc3ncnn4cc(OC[C@@H](C)OC(=O)[C@H](C)N)c(C)c34)ccc2[nH]1 | 1.94
CC(C)(C)C(=O)OCOP(=O)(COCCn1cnc2c(N)ncnc21)OCOC(=O)C(C)(C)C [Adefovir Dipivoxil] | -3.81
COC(=O)CC[C@H](NC(=O)[C@H](CC(=O)OC)NC(=O)OCc1ccccc1)C(=O)N[C@H](C(=O)N[C@@H](CC(=O)OC)C(=O)CF)C(C)C | 1.73
CCCC1O[C@@H]2C[C@H]3[C@@H]4CCC5=CC(=O)C=C[C@]5(C)[C@H]4[C@@H](O)C[C@]3(C)[C@]2(C(=O)CO)O1 (some centres undefined) [Budesonide] | 0.0499
CCOC(=O)[C@H](CCc1ccccc1)N[C@H]1CS[C@H](c2cccs2)CN(CC(=O)O)C1=O [Temocapril HCl] | 0.285
CN1CCC[C@@H]1CCO[C@](C)(c1ccccc1)c1ccc(Cl)cc1 [Clemastine Fumarate] | -1.82
CN(CCOc1ccc(CC2SC(=O)NC2=O)cc1)c1ccccn1 (centres undefined) [Rosiglitazone maleate] | -0.314
Brc1ccc([C@H]2CN3CCSC3=N2)cc1 [(-)-p-Bromotetramisole Oxalate] | 0.446
O=c1[nH]cnc2c1ncn2[C@@H]1O[C@H](CO)[C@@H](O)[C@H]1O [Inosine] | -0.173
C=CC(=O)Nc1cc(Nc2nccc(-c3c[nH]c4ccccc34)n2)c(OC)cc1N(C)CCN(C)C | -2.96
CN1C2CCCC1CC(NC(=O)c1nn(C)c3ccccc13)C2 (centres undefined) [Granisetron HCl] | -0.0203
CCN(Cc1ccncc1)C(=O)C(CO)c1ccccc1 (centres undefined) [Tropicamide] | 1.27
COC(=O)N(C)c1c(N)nc(-c2nn(Cc3ccccc3F)c3ncccc23)nc1N [Riociguat (BAY 63-2521)] | 0.68
COC(=O)Nc1ccc(-c2nc(N3CCOCC3)c3cnn(C4CCN(C(=O)OC)CC4)c3n2)cc1 | 1.12
O=C(NC[C@H](O)CN1CCc2ccccc2C1)c1ccnc(NC2CCC2)c1 | -1.03
O=c1cc(N2CCOCC2)oc2c(-c3cccc4c3sc3ccccc34)cccc12 | -0.178
CC[C@]1(O)C[C@H]2CN(CCc3c([nH]c4ccccc34)[C@@](C(=O)OC)(c3cc4c(cc3OC)N(C=O)[C@H]3[C@@](O)(C(=O)OC)[C@H](OC(C)=O)[C@]5(CC)C=CCN6CC[C@]43[C@@H]65)C2)C1 [Vincristine] | -2.54
CC(=O)N[C@@H](CS)C(=O)O [Acetylcysteine] | 0.851
CN(C)CCCN1c2ccccc2Sc2ccc(Cl)cc21 [Chlorpromazine HCl] | -1.42

Compound | total neurite length per nucleus (z-score)
O=C1C2CC3CC1CC(O)(C3)C2 [Idramantone] | 0.593
CCOC(=O)c1ccc(OC(=O)CCCCCNC(=N)N)cc1 [Gabexate Mesylate] | -0.973
COC(=O)N[C@@H](C)CNc1nccc(-c2cn(C(C)C)nc2-c2cc(Cl)cc(NS(C)(=O)=O)c2F)n1 | -0.939
COC(=O)c1ccc2c(c1)NC(=O)/C2=C(\Nc1ccc(N(C)C(=O)CN2CCN(C)CC2)cc1)c1ccccc1 [Nintedanib (BIBF 1120)] | -1.6
COc1cc2nc(N3CCN(C(=O)c4ccco4)CC3)nc(N)c2cc1OC [Prazosin HCl] | 0.439
O=C(O)c1ccc(CN2CCC(CN[C@@H]3C[C@H]3c3ccccc3)CC2)cc1 | 2.05
C[C@]12CC[C@@H]3c4ccc(O)cc4CC[C@H]3[C@@H]1CCC2=O [Estrone] | 0.865
CO[C@H]1C[C@@H]2CC[C@@H](C)[C@@](O)(O2)C(=O)C(=O)N2CCCC[C@H]2C(=O)O[C@H]([C@H](C)C[C@@H]2CC[C@@H](OC(=O)C(C)(CO)CO)[C@H](OC)C2)CC(=O)[C@H](C)/C=C(\C)[C@@H](O)[C@@H](OC)C(=O)[C@H](C)C[C@H](C)/C=C/C=C/C=C/1C | 1.04
O=c1c(O)c(-c2ccc(O)cc2O)oc2cc(O)cc(O)c12 [Morin Hydrate] | 0.682
N=C1NC(=O)/C(=C/c2ccc(O)cc2)S1 [Mirin] | 0.0664
COc1ccc(-c2ccc3c(N4CCOCC4)nc(N4C[C@@H](C)O[C@@H](C)C4)nc3n2)cc1CO | 0.66
COc1cc2ncnc(Nc3ccc(F)c(Cl)c3)c2cc1NC(=O)/C=C/CN1CCCCC1 | 0.167
C=CC(=O)Nc1ccc2ncnc(Nc3cccc(Br)c3)c2c1 | -0.299
O=C(O)Cn1nnc(-c2cc(N3CCC(Oc4cc(F)ccc4Br)CC3)no2)n1 | -0.116
OCC(CO)N[C@H]1C[C@](O)(CO)[C@@H](O)[C@H](O)[C@H]1O [Voglibose] | -2.12
CN(C)CC(c1ccc(O)cc1)C1(O)CCCCC1 (centres undefined) [Desvenlafaxine Succinate] | -0.569
C[C@@H]1CCO[C@H]2Cn3cc(C(=O)NCc4ccc(F)cc4F)c(=O)c(O)c3C(=O)N12 | 0.455
COc1cc2nccc(Oc3ccc(NC(=O)NC4CC4)c(Cl)c3)c2cc1C(N)=O [Lenvatinib (E7080)] | 0.229
CC(=O)OCC(CCn1cnc2cnc(N)nc21)COC(C)=O [Famciclovir] | 0.896

As entered above.
total neurite length per nucleus (z-score) with `N=C1NC(=O)/C(=C/c2ccc(O)cc2)S1` [Mirin] reads 0.0664
total neurite length per nucleus (z-score) with `CC(=O)OCC(CCn1cnc2cnc(N)nc21)COC(C)=O` [Famciclovir] reads 0.896
